Measurements published in the supplement of paper PMC10849652.
Some of the results follow.

Chains of the proteins cited; added tags and fusions are not shown. Lines headed by an entry give the natural chain unless they say otherwise; changes in a name come on top.
UniProt Q9ULX9: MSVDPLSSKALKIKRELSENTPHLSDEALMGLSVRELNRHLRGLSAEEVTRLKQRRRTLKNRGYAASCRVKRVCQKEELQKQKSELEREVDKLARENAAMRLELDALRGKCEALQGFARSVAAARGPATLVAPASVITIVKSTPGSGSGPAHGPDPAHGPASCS
UniProt Q9UBF1: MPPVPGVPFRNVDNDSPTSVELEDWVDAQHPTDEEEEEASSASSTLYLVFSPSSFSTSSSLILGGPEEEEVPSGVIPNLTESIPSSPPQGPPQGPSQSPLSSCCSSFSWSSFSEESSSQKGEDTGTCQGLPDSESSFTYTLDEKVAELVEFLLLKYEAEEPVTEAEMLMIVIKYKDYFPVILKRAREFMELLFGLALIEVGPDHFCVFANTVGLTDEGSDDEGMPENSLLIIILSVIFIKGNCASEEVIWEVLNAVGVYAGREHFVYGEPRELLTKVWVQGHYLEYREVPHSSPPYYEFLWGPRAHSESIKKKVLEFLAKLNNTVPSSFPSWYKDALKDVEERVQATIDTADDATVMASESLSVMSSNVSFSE
UniProt Q969L4: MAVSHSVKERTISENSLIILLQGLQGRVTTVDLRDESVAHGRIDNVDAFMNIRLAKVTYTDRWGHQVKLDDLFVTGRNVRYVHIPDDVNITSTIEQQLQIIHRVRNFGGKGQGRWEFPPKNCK
UniProt Q86X29: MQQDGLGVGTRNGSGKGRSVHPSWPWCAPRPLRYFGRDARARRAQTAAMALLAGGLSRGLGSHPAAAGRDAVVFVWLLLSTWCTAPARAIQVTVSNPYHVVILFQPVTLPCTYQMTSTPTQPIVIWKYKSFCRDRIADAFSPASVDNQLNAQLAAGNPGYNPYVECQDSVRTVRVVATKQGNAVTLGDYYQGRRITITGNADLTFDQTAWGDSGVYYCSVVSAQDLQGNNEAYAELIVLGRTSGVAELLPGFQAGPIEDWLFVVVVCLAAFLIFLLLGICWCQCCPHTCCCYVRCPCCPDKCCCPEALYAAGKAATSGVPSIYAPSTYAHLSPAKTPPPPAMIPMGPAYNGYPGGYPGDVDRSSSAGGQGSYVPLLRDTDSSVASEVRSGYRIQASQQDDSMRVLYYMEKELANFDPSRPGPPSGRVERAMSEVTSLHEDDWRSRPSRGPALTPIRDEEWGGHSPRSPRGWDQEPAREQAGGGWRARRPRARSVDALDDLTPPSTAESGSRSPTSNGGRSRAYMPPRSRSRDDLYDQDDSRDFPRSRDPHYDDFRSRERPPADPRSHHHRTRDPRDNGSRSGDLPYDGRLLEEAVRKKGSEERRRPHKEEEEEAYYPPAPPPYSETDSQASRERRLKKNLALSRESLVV

Tests used:
Test in all cases: log2 fold change, soluble protein after heating vs DMSO (PISA); higher = thermal stabilisation; K562 cells, 10 uM, 30 min; active = over 0.2 and 3.5 SD of the protein, either way, in both replicates (recomputed)
saracatinib = compound: CN1CCN(CCOc2cc(OC3CCOCC3)c3c(Nc4c(Cl)ccc5c4OCO5)ncnc3c2)CC1 [saracatinib]
How it was run: (§1)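 Soluble protein was defined as the supernatant after 21,000xg for 90 min. It came from K562 cells at 2×10^6 cells/mL given 10 μM compound for 30 min, heated in aliquots for 3 min across 48°C-58°C, pooled, and extracted in PBS with 0.5% NP-40 at 4°C, and was quantified by TMTpro 16plex LC-MS/MS with equalised channel sums. Thermal stability against control samples, from duplicates, is reported as log2 fold change.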

sotrastaurin = compound: CN1CCN(c2nc(C3=C(c4c[nH]c5ccccc45)C(=O)NC3=O)c3ccccc3n2)CC1 [sotrastaurin]
How it was run: as §1

defactinib = compound: CNC(=O)c1ccc(Nc2ncc(C(F)(F)F)c(NCc3nccnc3N(C)S(C)(=O)=O)n2)cc1 [defactinib]
How it was run: as §1

rucaparib = compound: CNCc1ccc(-c2[nH]c3cc(F)cc4c3c2CCNC4=O)cc1 [rucaparib]
How it was run: as §1

[1] = compound: CNc1nc(-c2ccc3c(N)n[nH]c3c2)cc(N2C[C@@H](C(=O)NC3CCCCC3)CC[C@H]2C)n1
How it was run: as §1

encorafenib = compound: COC(=O)N[C@@H](C)CNc1nccc(-c2cn(C(C)C)nc2-c2cc(Cl)cc(NS(C)(=O)=O)c2F)n1 [encorafenib]
How it was run: as §1

[2] = compound: COC(=O)[C@H](CCSC)NC(=O)C1=C(C=C(C=C1)NC[C@H](CS)N)C2=CC=CC=C2
How it was run: as §1

[3] = compound: COC1=CC=C(C=C1)CN2C=CC3=C2C=C(C=C3)C(=O)NO
How it was run: as §1

filanesib = compound: CON(C)C(=O)N1N=C(c2cc(F)ccc2F)S[C@@]1(CCCN)c1ccccc1 [filanesib]
How it was run: as §1

idasanutlin = compound: COc1cc(C(=O)O)ccc1NC(=O)[C@@H]1N[C@@H](CC(C)(C)C)[C@](C#N)(c2ccc(Cl)cc2F)[C@H]1c1cccc(Cl)c1F [idasanutlin]
How it was run: as §1

alisertib = compound: COc1cc(Nc2ncc3c(n2)-c2ccc(Cl)cc2C(c2c(F)cccc2OC)=NC3)ccc1C(=O)O [alisertib]
How it was run: as §1

gefitinib = compound: COc1cc2ncnc(Nc3ccc(F)c(Cl)c3)c2cc1OCCCN1CCOCC1 [gefitinib]
How it was run: as §1

[4] = compound: COc1cccc2cc(-c3nc([C@H]4CC[C@H](C(=O)O)CC4)n4ncnc(N)c34)[nH]c12
How it was run: as §1

pictilisib = compound: CS(=O)(=O)N1CCN(Cc2cc3nc(-c4cccc5[nH]ncc45)nc(N4CCOCC4)c3s2)CC1 [pictilisib]
How it was run: as §1

Tubastatin A = compound: CN1CCc2c(c3ccccc3n2Cc2ccc(C(=O)NO)cc2)C1 [Tubastatin A]
How it was run: as §1

[5] = compound: CNC(=O)C1=CC=CC=C1NC2=NC(=NC=C2Cl)NC3=C(C=C(C=C3)N4CCOCC4)OC
How it was run: as §1

zotarolimus = compound: CO[C@H]1C[C@@H]2CC[C@@H](C)[C@@](O)(O2)C(=O)C(=O)N2CCCC[C@H]2C(=O)O[C@H]([C@H](C)C[C@@H]2CC[C@H](n3cnnn3)[C@H](OC)C2)CC(=O)[C@H](C)/C=C(\C)[C@@H](O)[C@@H](OC)C(=O)[C@H](C)C[C@H](C)/C=C/C=C/C=C/1C [zotarolimus]
How it was run: as §1

[6] = compound: COc1cc2nc(-c3cc(F)ccc3O)nc(N[C@@H]3CNC[C@H]3C(C)(C)O)c2cc1OC
How it was run: as §1

lapatinib = compound: CS(=O)(=O)CCNCc1ccc(-c2ccc3ncnc(Nc4ccc(OCc5cccc(F)c5)c(Cl)c4)c3c2)o1 [lapatinib]
How it was run: as §1

Measured: log2 fold change

MAFF (UniProt Q9ULX9)
inactive: saracatinib 0.069 | sotrastaurin 0 | defactinib 0.099 | rucaparib 0.027 | [1] -0.051 | encorafenib 0.019 | [2] 0.124 | [3] -0.115 | filanesib -0.311 | idasanutlin 0.088 | alisertib -0.073 | gefitinib -0.103 | [4] -0.159 | pictilisib -0.093

MAGEC2 (UniProt Q9UBF1)
inactive: saracatinib 0.092 | sotrastaurin -0.068 | Tubastatin A -0.013 | [5] 0.015 | defactinib -0.056 | rucaparib -0.021 | [1] -0.082 | encorafenib 0.079 | [2] 0.003 | [3] 0.018 | filanesib -0.032 | zotarolimus 0.039 | idasanutlin -0.045 | alisertib -0.044 | [6] 0.015 | gefitinib -0.018 | [4] -0.005 | lapatinib -0.004 | pictilisib 0.058

LSM10 (UniProt Q969L4)
inactive: saracatinib 0.269 | Tubastatin A -0.033 | [5] -0.293 | [1] -0.068 | [3] 0.087 | [6] 0.06 | gefitinib -0.019 | lapatinib 0.338

LSR (UniProt Q86X29)
inactive: saracatinib -0.003 | sotrastaurin 0.023 | Tubastatin A 0.012 | [5] -0.074 | defactinib -0.053 | rucaparib -0.023 | [1] 0.095 | encorafenib 0.042 | [2] 0.031 | [3] 0.107 | filanesib 0.116 | zotarolimus -0.011 | idasanutlin -0.022 | alisertib -0.122 | [6] 0.027 | gefitinib 0.021 | [4] 0.033 | lapatinib -0.056 | pictilisib 0.121
